## Library screen at single concentrations

Chains of the proteins cited; added tags and fusions are not shown. Residues count along the entry.
UniProt Q4DA54, 1-478: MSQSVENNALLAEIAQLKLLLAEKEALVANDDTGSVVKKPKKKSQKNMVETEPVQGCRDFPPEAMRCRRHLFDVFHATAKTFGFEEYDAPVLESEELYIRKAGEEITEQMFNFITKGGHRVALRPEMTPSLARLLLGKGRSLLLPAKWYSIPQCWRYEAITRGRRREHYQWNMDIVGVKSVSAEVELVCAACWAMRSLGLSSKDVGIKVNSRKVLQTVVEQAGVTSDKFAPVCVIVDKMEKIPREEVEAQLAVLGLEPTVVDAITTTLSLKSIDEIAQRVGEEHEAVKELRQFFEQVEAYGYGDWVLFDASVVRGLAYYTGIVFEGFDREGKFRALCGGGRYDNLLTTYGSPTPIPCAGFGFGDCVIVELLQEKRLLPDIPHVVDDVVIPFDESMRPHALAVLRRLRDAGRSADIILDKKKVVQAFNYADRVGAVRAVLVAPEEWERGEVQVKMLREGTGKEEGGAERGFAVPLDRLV
UniProt A4I591, 1-473: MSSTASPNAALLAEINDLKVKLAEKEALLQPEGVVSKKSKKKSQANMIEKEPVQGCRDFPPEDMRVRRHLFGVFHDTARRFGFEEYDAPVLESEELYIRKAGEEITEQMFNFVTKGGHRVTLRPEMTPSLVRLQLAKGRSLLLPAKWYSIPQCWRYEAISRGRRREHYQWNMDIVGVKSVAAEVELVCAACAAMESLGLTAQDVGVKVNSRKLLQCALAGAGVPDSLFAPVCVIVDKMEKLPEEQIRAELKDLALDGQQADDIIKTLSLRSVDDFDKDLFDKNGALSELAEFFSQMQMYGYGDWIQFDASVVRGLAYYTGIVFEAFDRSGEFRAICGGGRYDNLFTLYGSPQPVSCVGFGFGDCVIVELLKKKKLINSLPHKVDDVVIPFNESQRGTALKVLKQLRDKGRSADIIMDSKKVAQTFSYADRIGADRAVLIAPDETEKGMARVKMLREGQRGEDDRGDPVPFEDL
UniProt Q8IDJ8, 1-583: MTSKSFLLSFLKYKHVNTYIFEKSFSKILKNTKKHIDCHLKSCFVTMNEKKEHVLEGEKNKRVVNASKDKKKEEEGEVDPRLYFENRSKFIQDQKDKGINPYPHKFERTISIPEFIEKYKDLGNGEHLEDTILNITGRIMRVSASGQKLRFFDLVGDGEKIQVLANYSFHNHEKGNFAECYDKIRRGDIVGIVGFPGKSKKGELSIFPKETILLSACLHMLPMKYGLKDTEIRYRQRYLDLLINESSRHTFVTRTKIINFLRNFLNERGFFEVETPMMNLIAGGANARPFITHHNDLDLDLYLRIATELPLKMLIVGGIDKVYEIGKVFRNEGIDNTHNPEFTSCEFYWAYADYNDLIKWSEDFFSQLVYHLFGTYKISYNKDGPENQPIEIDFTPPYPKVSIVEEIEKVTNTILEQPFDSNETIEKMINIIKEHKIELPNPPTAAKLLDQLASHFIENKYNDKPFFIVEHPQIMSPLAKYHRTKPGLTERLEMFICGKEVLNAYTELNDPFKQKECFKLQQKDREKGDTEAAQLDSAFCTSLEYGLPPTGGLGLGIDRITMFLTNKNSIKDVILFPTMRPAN

From ChEMBL document CHEMBL3988442, “University of Dundee, Small-Polar-MMV Screening Library” (2021).

A: 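Histidine-tRNA ligase, Trypanosoma cruzi CL Brener (UniProt Q4DA54). Enzyme assay of histidyl-tRNA synthetase; the read-out is not stated. Concentration: 30 µM. Higher reads as stronger inhibition (inferred: compounds with an IC50 in retests scored well above the rest). Size under these conditions: about 69,000 compounds, about 31 of them at 50% or above in at least one test.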
B: 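Enzyme assay of histidyl-tRNA synthetase; the read-out is not stated. Target: Histidine-tRNA ligase, Leishmania infantum (UniProt A4I591). Tested at 30 µM. Direction is inferred from retests: higher values go with stronger inhibition. The assay is labelled LdHisRS but filed under L. infantum. About 69,000 compounds were tested under these conditions; 0.6% (about 410) showed 50% or more at least once.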
C: 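Lysine-tRNA ligase, Plasmodium falciparum 3D7 (UniProt Q8IDJ8). Enzyme assay of the cytosolic lysyl-tRNA synthetase in 384-well plates, read by luminescence. Tested at 30 µM. Higher reads as stronger inhibition, judged from the few compounds that gave an IC50. Size under these conditions: about 69,000 compounds, about 49 of them at 50% or above in at least one test.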

Values are the deposited “Percent Effect”, in %.
The record does not define 0% and 100%; most values in the screen are far below 50% and negative numbers occur (in some assays of this library far below -100).
This is an unselected part of the compounds tested.

| compound | A | B | C |
|---|---|---|---|
| `Cc1c(C2CC(=O)Nc3c2cnn3C(C)C)cnn1C` (stereo not shown) | -2.97% | 16.3% | 4.458% |
| `O=C(Cn1ncc2c(c1=O)CCCCC2)Nc1cccc2[nH]ccc12` | 1.031% | 16.48% | 4.013% |
| `O=C1COC2(CCN(Cc3ccco3)CC2)CN1CCn1cccn1` | 2.674% | 23.08% | 3.084% |
| `CCC(NC(=O)NCC(=O)NC(C)C)c1cc(F)ccc1F` (stereo not shown) | 7.328% | 11.39% | 5.941% |
| `COc1ccccc1CCN(C)C(C)c1nc(-c2cccnc2)no1` (stereo not shown) | -3.867% | 12.44% | -2.057% |
| `Cc1ccc(CCNC(=O)NCCCC(N)=O)c(C)c1` | 1.053% | 19.18% | -0.1352% |
| `CCn1nc(C)c(CN(CCCOC)Cc2ccccn2)c1C` | 4.215% | 10% | -1.311% |
| `CCOC(=O)N[C@H]1C[C@@H](C(=O)NCc2cccc(Cl)c2)N(C)C1` | 10.1% | 19.51% | 1.993% |
| `COCC1CC2(CCN(C(=O)c3oc4ccccc4c3C)CC2)CO1` (stereo not shown) | 7.65% | 5.263% | 1.039% |
| `CC(=O)Nc1nc(C(=O)NCc2ccc(N3CCCCC3)cc2)cs1` | 0.5634% | 4.348% | 0.2489% |
| `CN(C)CC(=O)N1Cc2nnn(C)c2C(COCc2ccccn2)C1` (stereo not shown) | -1.493% | -5.405% | 0.7183% |
| `Cc1ccc(C(=O)N2C[C@@H](NS(C)(=O)=O)[C@H](C(C)C)C2)cc1O` | 8.861% | 12.5% | 0% |
| `CCC(O)CN1CCN(C(=O)Cc2ccccc2Cl)CC1` (stereo not shown) | 6.471% | 16.51% | 1.027% |
| `CCN1CCOCC12CCN(c1ccc(C#N)cc1)CC2` | 11.39% | 24.14% | 6.987% |
| `O=C(Cc1ccsc1)NCC1OCCc2cn(CC3CC3)nc21` (stereo not shown) | 5.435% | 22.33% | 3.352% |
| `c1ccc(Cn2cc3c(n2)C(CNCC2CCOCC2)OCC3)nc1` (stereo not shown) | 7.65% | 8.772% | 0.9435% |
| `CCN(CC(=O)NC)C(=O)c1csc(Cc2ccccc2)n1` | 11.11% | 15.69% | 4.92% |
| `COc1c(CNCc2ccccc2CO)c(C)nn1C` | 3.061% | 13.89% | 2.25% |
| `CN(Cc1ccoc1)C(=O)C1CC(=O)N(Cc2ccncc2)C1` (stereo not shown) | 4.651% | 13.11% | 6.218% |
| `CCN(Cc1ccc2c(c1)OCCO2)C(=O)NCc1nc(C)cs1` | 1.887% | 16% | 8.558% |
| `CN(c1ccncn1)C1CC2(CCN(C(=O)Cc3cccs3)C2)C1` (stereo not shown) | 3.297% | 7.246% | 2.14% |
| `Cn1cc(CN2CCn3c(CNC(=O)c4cccn4C)cnc3C2)cn1` | 7.027% | 11.32% | 6.645% |
| `CC(=O)N1CCC(c2nc(C)cc(-c3ccccc3C(=O)O)n2)CC1` | 9.574% | 19.79% | 2.11% |
| `COc1cc(-c2cccc3c2OC(CN)C3)cc(OC)c1OC` (stereo not shown) | 5.455% | 17.78% | 0.3263% |
| `O=C(NCC1OCCc2cn(CC3CCOCC3)nc21)c1ccncc1` (stereo not shown) | 0.9852% | 11.76% | 1.138% |
| `CN(C(=O)Cc1ccc(F)cc1)C1CCN(c2ccccn2)CC1` | 0.565% | 10.34% | -1.254% |
| `COc1nccnc1-c1cccc(-c2ccn(CC3COCCO3)n2)c1` (stereo not shown) | 6.494% | 6.667% | -0.2323% |
| `NC(=O)C1CCCN(C(=O)c2cnc3c(cnn3C3CCCC3)c2)C1` (stereo not shown) | -0.7519% | -7.865% | -2.572% |
| `CC(C)n1cnnc1CN(C)C(=O)C1CCCN(C2CCN(C)CC2)C1` (stereo not shown) | 8% | 12.24% | 3.372% |
| `Cc1noc(Cl)c1CCC(=O)N1CCN(c2cnccn2)CC1` | 0% | -0.8772% | -0.1852% |
| `CC1(C)CNC(=O)CN(C(=O)COc2ccccc2)C1` | 1.156% | 20.62% | 2.049% |
| `CC(C)OCCCN1CCCC(c2nc3ccccc3n2C(C)C)C1` (stereo not shown) | -0.5348% | 9.615% | -1.505% |
| `CCCNC(=O)c1ccc2c(OC)n(C)nc2c1` | 2.062% | 12.17% | -4.629% |
| `CC(C)OCC(=O)N1CCC(c2ncncc2-c2ccnc(N)c2)C1` (stereo not shown) | 4.615% | 14.08% | 2.063% |
| `O=C(c1cccc(S(=O)(=O)NCCc2cscn2)c1)N1CCOCC1` | 2.513% | 10.4% | -0.08579% |
| `CCN1CCN(c2ccc(CNC(=O)c3cc(C)on3)cn2)CC1` | 3.39% | 12.07% | 0.664% |
| `CN1C(=O)CC2(CCN(S(=O)(=O)N(C)C)CC2)c2ccccc21` | 7.595% | -8.621% | -5.46% |
| `CSc1ccc(NC(=O)NCC2CCCO2)cc1F` (stereo not shown) | -1.754% | 8.85% | -4.672% |
| `Cc1cc2nc(CO[C@H]3CN(C4CCCCC4)C[C@H]3F)[nH]c2cc1C` | 4.348% | 6.757% | 1.665% |
| `CCC1(CC)CC(=O)N(CC(O)c2ccc(Cl)cc2)C1=O` (stereo not shown) | 3.478% | 5% | 4.873% |
| `NC(=O)CS(=O)(=O)Cc1cc(Cl)c2c(c1)OCCCO2` | 2.857% | 6.78% | -1.079% |
| `O=C(NCC1(CO)CC1)c1ccccc1F` | 3.061% | 4.959% | 2.028% |
| `CC(C)COc1cncc(N2CCCC(CC(N)=O)C2)n1` (stereo not shown) | 6.03% | 10.59% | -1.154% |
| `Cc1ccoc1C(=O)NCC(Cc1ccc(F)cc1)C(N)=O` (stereo not shown) | -0.3774% | 8% | 2.884% |
| `Cc1nn(-c2ccc(C(=O)O)cc2)c2c1C(c1cccs1)SCC(=O)N2` (stereo not shown) | 10.42% | 20.83% | 1.8% |
| `c1cncc(COCC2CC[C@H]3[C@H]2OCCN3Cc2ccoc2)c1` (stereo partly shown) | 1.105% | 4.505% | 0.8876% |

3 of the entries, repeated:

compound	A	B	C
Cc1cc2nc(CO[C@H]3CN(C4CCCCC4)C[C@H]3F)[nH]c2cc1C	4.348%	6.757%	1.665%
c1cncc(COCC2CC[C@H]3[C@H]2OCCN3Cc2ccoc2)c1 (stereo partly shown)	1.105%	4.505%	0.8876%
CCC(O)CN1CCN(C(=O)Cc2ccccc2Cl)CC1 (stereo not shown)	6.471%	16.51%	1.027%